Values quoted from earlier work, collected in US20140248684A1, “COMPOSITIONS AND METHODS FOR THE PRODUCTION AND USE OF HUMAN CHOLINESTERASES” (priority 2011, published 2014).
At least one read-out could not be matched to a standard name with certainty.

Details: established value; cited from earlier work

B1: WT BChE (protein, UniProt P06276 29-602, looked up)
Cholinesterase: EDDIIIATKNGKVRGMNLTVFGGTVTAFLGIPYAQPPLGRLRFKKPQSLTKWSDIWNATKYANSCCQNIDQSFPGFHGSEMWNPNTDLSEDCLYLNVWIPAPKPKNATVLIWIYGGGFQTGTSSLHVYDGKFLARVERVIVVSMNYRVGALGFLALPGNPEAPGNMGLFDQQLALQWVQKNIAAFGGNPKSVTLFGESAGAASVSLHLLSPGSHSLFTRAILQSGSFNAPWAVTSLYEARNRTLNLAKLTGCSRENETEIIKCLRNKDPQEILLNEAFVVPYGTPLSVNFGPTVDGDFLTDMPDILLELGQFKKTQILVGVNKDEGTAFLVYGAPGFSKDNNSIITRKEFQEGLKIFFPGVSEFGKESILFHYTDWVDDQRPENYREALGDVVGDYNFICPALEFTKKFSEWGNNAFFYYFEHRSSKLPWPEWMGVMHGYEIEFVFGLPLERRDNYTKAEEILSRSIVKRWANFAKYGNPNETQNNSTSWPVFKSTEQKYLTLNTESTRIMTKLRAQQCRFWTSFFPKVLEMTGNIDEAEWEWKAGFHRWNNYMMDWKNQFNDYTSKKESCVGL
efficiency of catalysis (KCAT/KM), cocaine hydrolysis: 1.3e+06 M/min
